Measured values as given in the supplement of paper PMC10849652.
The list shows a part of the results. Residues, ends and D or L forms follow the SMILES beside them. *: point of attachment. Cbz = O=C(OCc1ccccc1)*

Chains of the proteins cited; added tags and fusions are not shown. Lines headed by an entry give the natural chain unless they say otherwise; changes in a name come on top.
UniProt Q8NFH4: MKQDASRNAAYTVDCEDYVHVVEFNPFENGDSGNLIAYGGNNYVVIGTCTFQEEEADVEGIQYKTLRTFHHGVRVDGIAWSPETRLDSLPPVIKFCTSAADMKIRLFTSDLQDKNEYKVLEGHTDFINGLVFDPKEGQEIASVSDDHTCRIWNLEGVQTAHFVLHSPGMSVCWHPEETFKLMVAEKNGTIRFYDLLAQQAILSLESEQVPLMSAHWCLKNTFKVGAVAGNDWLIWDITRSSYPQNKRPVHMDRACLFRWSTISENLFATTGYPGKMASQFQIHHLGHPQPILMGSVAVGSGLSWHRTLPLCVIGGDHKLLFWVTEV
UniProt Q02818: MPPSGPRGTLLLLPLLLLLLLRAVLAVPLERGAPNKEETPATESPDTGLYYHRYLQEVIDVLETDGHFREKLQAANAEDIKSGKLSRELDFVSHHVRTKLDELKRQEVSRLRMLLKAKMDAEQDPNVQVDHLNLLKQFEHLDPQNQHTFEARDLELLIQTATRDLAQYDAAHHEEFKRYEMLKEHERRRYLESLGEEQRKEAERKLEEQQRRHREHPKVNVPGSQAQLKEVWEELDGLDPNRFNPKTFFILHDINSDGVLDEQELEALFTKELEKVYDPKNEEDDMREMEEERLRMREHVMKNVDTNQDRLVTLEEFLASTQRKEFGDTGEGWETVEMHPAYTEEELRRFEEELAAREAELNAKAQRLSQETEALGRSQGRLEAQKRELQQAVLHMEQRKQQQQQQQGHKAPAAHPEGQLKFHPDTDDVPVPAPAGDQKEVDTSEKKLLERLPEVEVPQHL
UniProt P80303: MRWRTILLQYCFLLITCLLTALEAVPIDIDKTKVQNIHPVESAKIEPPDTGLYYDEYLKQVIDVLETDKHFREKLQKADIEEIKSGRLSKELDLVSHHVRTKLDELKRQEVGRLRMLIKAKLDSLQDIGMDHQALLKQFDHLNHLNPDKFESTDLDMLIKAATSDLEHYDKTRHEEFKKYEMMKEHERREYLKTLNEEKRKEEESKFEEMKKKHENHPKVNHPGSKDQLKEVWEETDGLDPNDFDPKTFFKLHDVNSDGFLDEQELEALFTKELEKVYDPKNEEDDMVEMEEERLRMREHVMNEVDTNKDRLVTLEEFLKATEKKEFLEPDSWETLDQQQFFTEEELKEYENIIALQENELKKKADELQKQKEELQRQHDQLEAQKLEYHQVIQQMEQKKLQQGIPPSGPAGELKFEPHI
UniProt Q9NPF4: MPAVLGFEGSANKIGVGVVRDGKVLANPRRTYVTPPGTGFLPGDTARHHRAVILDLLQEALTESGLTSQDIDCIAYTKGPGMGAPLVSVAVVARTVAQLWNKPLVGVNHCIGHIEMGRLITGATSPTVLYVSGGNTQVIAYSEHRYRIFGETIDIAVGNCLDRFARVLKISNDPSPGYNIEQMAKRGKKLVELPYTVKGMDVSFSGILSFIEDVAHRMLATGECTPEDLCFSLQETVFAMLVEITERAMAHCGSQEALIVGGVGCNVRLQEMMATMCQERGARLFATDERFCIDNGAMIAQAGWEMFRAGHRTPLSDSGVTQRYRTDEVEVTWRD
UniProt O60502: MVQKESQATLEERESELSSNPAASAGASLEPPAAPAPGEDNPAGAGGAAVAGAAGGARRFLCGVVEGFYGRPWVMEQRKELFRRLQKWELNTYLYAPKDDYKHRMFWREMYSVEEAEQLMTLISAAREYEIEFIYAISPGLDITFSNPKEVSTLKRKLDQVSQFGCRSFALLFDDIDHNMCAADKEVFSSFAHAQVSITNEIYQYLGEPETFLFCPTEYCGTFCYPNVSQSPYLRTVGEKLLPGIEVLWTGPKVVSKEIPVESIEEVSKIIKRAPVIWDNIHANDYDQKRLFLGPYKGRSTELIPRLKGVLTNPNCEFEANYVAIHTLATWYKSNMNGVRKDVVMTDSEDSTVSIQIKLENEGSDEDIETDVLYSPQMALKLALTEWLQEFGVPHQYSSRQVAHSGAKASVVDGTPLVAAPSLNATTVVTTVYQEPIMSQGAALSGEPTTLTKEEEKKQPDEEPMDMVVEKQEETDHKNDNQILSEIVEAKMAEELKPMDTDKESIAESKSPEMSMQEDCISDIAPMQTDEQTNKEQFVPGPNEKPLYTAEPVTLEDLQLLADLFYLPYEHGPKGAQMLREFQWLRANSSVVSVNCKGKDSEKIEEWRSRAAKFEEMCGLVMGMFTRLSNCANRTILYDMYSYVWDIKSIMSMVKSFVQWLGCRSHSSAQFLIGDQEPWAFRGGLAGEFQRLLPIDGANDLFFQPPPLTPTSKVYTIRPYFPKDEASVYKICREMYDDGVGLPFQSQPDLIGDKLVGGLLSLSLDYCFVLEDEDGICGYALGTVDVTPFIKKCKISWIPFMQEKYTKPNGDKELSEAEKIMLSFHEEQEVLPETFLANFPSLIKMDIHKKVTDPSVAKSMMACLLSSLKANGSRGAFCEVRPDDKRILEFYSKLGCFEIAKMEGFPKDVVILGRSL
UniProt Q8N1F7: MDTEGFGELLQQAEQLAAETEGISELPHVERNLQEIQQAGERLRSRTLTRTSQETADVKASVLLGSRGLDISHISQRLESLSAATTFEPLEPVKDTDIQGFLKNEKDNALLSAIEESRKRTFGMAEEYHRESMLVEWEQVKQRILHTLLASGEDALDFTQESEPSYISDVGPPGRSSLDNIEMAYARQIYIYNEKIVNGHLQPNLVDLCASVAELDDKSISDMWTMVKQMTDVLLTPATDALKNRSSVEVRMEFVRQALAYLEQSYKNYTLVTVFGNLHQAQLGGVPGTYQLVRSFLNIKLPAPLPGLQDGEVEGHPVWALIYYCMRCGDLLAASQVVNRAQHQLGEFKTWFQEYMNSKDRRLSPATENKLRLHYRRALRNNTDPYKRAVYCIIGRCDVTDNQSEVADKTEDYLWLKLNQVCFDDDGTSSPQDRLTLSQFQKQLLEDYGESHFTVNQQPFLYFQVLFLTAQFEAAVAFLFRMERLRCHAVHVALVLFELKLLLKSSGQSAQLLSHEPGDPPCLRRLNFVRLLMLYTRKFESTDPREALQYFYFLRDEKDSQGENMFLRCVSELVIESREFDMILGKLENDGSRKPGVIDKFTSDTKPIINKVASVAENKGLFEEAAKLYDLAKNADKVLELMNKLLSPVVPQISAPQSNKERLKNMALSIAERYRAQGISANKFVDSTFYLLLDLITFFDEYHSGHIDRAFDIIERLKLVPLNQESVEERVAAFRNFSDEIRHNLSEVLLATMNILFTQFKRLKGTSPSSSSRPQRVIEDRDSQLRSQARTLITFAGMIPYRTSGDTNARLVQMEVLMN
UniProt Q96P11: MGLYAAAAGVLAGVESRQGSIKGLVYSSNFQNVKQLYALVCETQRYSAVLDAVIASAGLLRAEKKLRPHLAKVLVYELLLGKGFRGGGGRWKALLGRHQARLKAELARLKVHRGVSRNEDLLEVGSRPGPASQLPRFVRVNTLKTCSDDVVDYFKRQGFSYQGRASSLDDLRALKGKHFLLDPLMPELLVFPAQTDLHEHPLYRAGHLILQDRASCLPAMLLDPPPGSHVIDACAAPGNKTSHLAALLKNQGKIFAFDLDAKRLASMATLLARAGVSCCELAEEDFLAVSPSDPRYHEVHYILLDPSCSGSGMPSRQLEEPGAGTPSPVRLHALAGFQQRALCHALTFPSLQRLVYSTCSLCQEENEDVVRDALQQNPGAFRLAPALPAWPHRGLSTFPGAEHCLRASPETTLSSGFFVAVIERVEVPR
UniProt Q9BRJ7: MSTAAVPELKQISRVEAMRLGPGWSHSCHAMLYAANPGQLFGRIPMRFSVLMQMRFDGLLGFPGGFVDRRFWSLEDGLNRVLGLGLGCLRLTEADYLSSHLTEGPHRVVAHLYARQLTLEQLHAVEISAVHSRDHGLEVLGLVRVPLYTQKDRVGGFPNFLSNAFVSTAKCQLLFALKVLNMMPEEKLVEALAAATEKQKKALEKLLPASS
UniProt Q8TB37: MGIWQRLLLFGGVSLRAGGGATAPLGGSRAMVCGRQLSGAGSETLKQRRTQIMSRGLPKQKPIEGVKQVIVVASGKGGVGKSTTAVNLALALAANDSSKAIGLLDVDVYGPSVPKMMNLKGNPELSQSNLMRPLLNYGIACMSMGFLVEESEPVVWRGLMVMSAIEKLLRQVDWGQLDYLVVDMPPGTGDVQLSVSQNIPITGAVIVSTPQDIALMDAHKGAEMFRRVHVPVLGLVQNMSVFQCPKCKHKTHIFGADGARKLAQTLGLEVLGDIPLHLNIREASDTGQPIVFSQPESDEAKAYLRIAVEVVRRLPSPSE
UniProt P37198: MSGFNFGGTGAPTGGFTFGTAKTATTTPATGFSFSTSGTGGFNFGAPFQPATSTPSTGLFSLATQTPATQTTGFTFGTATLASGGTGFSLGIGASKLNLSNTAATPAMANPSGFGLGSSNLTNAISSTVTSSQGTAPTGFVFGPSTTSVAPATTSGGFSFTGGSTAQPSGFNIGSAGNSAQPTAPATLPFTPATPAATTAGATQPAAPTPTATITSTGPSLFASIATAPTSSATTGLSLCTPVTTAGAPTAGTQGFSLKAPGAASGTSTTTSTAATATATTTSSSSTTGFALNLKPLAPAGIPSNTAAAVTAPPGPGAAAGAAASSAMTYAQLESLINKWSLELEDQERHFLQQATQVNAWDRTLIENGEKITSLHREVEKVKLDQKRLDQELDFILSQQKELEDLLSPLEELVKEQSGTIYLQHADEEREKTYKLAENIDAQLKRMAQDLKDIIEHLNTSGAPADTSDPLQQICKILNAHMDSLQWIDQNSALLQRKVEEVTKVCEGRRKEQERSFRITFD
UniProt Q96RS6: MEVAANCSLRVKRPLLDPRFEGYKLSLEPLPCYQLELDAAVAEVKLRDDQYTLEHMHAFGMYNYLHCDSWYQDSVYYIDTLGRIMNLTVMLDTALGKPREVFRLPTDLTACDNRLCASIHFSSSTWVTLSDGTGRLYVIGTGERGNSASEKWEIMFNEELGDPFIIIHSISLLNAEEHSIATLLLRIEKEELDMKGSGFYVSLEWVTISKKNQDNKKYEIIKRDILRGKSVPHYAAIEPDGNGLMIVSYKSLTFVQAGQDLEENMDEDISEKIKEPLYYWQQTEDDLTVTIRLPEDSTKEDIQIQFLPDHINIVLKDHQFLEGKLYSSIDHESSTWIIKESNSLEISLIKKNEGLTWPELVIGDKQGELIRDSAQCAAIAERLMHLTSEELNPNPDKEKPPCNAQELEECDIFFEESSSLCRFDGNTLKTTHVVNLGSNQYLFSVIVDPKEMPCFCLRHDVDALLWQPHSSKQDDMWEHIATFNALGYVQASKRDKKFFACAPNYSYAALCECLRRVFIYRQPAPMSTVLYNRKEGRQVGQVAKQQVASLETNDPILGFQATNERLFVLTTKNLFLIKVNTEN
UniProt Q8TEA1: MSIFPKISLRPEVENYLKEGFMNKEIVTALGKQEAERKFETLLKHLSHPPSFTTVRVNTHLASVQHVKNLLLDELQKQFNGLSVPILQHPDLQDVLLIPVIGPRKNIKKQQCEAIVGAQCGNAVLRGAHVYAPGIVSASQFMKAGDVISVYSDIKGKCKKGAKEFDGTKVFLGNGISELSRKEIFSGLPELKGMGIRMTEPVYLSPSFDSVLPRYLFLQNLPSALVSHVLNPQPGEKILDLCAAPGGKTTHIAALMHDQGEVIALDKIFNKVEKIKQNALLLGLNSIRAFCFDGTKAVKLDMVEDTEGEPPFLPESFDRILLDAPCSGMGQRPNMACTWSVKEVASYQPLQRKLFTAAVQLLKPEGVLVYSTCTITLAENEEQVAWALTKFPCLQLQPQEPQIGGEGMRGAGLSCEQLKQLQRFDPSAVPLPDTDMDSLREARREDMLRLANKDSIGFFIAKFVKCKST
UniProt P13674: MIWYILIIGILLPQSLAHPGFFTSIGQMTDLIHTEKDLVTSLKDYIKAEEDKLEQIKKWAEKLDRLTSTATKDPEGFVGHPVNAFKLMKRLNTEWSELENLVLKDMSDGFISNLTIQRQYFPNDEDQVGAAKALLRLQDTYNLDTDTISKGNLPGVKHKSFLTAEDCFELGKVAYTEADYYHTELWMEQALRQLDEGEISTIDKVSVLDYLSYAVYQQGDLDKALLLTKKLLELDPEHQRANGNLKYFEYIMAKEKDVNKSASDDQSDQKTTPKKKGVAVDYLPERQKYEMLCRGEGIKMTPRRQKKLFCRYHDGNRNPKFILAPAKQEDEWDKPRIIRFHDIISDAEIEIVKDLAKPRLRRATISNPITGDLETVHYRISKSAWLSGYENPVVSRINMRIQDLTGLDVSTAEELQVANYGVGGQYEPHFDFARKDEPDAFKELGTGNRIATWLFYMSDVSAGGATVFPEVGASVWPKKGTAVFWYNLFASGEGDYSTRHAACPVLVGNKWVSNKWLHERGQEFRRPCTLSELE

Tests used:
Experiment in all cases: log2 fold change, soluble protein after heating vs DMSO (PISA); higher = thermal stabilisation; K562 cells, 10 uM, 30 min; active = over 0.2 and 3.5 SD of the protein, either way, in both replicates (recomputed)
IRAK-1-4 Inhibitor I = compound: C1COCCN1CCN2C3=CC=CC=C3N=C2NC(=O)C4=CC(=CC=C4)[N+](=O)[O-] [IRAK-1-4 Inhibitor I]
Outline: (§1)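 K562 cells at 2×10^6 cells/mL were exposed to 10 μM compound for 30 min, then aliquots were heated for 3 min across 48°C-58°C, pooled, and extracted in PBS containing 0.5% NP-40 at 4°C. The supernatant after 21,000xg for 90 min was taken as soluble protein and measured by TMTpro 16plex LC-MS/MS with channel sums equalised. Thermal stability is reported relative to control samples, with values from duplicates. Fold changes are given on a log2 scale.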

ibrutinib = compound: C=CC(=O)N1CCC[C@@H](n2nc(-c3ccc(Oc4ccccc4)cc3)c3c(N)ncnc32)C1 [ibrutinib]
Outline: as §1

[1] = compound: CC(=O)c1cnc2ccc(-c3cc(Cl)c(O)c(Cl)c3)nc2c1N[C@H]1CC[C@H](CN(C)C)CC1
Outline: as §1

ralimetinib = compound: CC(C)(C)Cn1c(N)nc2ccc(-c3[nH]c(C(C)(C)C)nc3-c3ccc(F)cc3)nc21 [ralimetinib]
Outline: as §1

[2] = compound: CC(C)(O)CC(=O)NCCn1ccc2ncnc(Nc3ccc(Oc4cccc(C(F)(F)F)c4)c(Cl)c3)c21
Outline: as §1

[3] = compound: CC(C)C1=C2N=C(C=C(N2N=C1)NCC3=CC=CC=C3)NCCCCCCN
Outline: as §1

[4] = compound: CC(C)C[C@@H](C=O)NC(=O)[C@H](CC(C)C)NC(=O)[C@H](CC(C)C)NC(=O)OCc1ccccc1
Outline: as §1

pinometostat = compound: CC(C)N(C[C@H]1O[C@@H](n2cnc3c(N)ncnc32)[C@H](O)[C@@H]1O)[C@H]1C[C@@H](CCc2nc3cc(C(C)(C)C)ccc3[nH]2)C1 [pinometostat]
Outline: as §1

[5] = compound: CC1=C(C(CC(=O)N1)C2=CC=C(C=C2)C(F)(F)F)C(=O)NC3=C(C=C4C(=C3)C=NN4)F
Outline: as §1

[6] = compound: CC1=C(C2=C(C=C1)C(=O)C3=CC=CC=C3N2CCCN)C
Outline: as §1

[7] = compound: CC1=C(C=C(C=C1)NC(=O)C2=CC(=CC=C2)C(C)(C)C#N)NC3=CC4=C(C=C3)N=CN(C4=O)C
Outline: as §1

[8] = compound: CC1=C(C=C(C=C1)NC(=O)C2=CC(=CC=C2)N(C)C)NC(=O)C3=CC=C(C=C3)O
Outline: as §1

[9] = compound: CC1=CC=C(C=C1)SC2=C3C=C(SC3=CN=C2)C(=O)N
Outline: as §1

[10] = compound: CC1=NC(=CC=C1)C2=C(N=C(N2)C(C)(C)C)C3=CC4=NC=CN=C4C=C3
Outline: as §1

Nexturastat A = compound: CCCCN(Cc1ccc(C(=O)NO)cc1)C(=O)Nc1ccccc1 [Nexturastat A]
Outline: as §1

vemurafenib = compound: CCCS(=O)(=O)Nc1ccc(F)c(C(=O)c2c[nH]c3ncc(-c4ccc(Cl)cc4)cc23)c1F [vemurafenib]
Outline: as §1

[11] = compound: CCCS(=O)(=O)Nc1ccc(F)c(C(=O)c2c[nH]c3ncc(Cl)cc23)c1F
Outline: as §1

[12] = compound: CCCc1cc(C)[nH]c(=O)c1CNC(=O)c1cc(-c2ccnc(N3CCN(C)CC3)c2)cc2c1cnn2C(C)C
Outline: as §1

givinostat = compound: CCN(CC)Cc1ccc2cc(COC(=O)Nc3ccc(C(=O)NO)cc3)ccc2c1 [givinostat]
Outline: as §1

barasertib = compound: CCN(CCCOc1ccc2c(Nc3cc(CC(=O)Nc4cccc(F)c4)[nH]n3)ncnc2c1)CCOP(=O)(O)O [barasertib]
Outline: as §1

Measured: log2 fold change

NUP37 (UniProt Q8NFH4)
inactive: IRAK-1-4 Inhibitor I -0.011 | ibrutinib -0.012 | [1] -0.006 | ralimetinib -0.089 | [2] -0.049 | [3] -0.02 | [4] -0.045 | pinometostat -0.046 | [5] 0.064 | [6] -0.06 | [7] 0.022 | [8] -0.006 | [9] -0.013 | [10] 0.048 | Nexturastat A -0.066 | vemurafenib 0.017 | [11] 0.041 | [12] -0.038 | givinostat 0.011 | barasertib 0.023

NUCB1 (UniProt Q02818)
inactive: IRAK-1-4 Inhibitor I 0.039 | ibrutinib -0.016 | [1] 0.031 | ralimetinib -0.012 | [2] 0.012 | [3] 0.068 | [4] -0.019 | pinometostat -0.03 | [5] 0.01 | [6] -0.071 | [7] -0.016 | [8] 0.01 | [9] 0.009 | [10] 0.005 | Nexturastat A -0.044 | vemurafenib -0.011 | [11] -0.025 | [12] -0.023 | givinostat -0.022 | barasertib -0.001

PA2G4 (UniProt Q9UQ80)
inactive: IRAK-1-4 Inhibitor I -0.081 | ibrutinib -0.025 | [1] 0.023 | ralimetinib 0.01 | [2] -0.033 | [3] -0.029 | [4] 0.005 | pinometostat -0.01 | [5] -0.047 | [6] -0.073 | [7] 0.075 | [8] -0.043 | [9] 0.007 | [10] 0.064 | Nexturastat A -0.023 | vemurafenib 0.023 | [11] 0.038 | [12] 0.004 | givinostat -0.022 | barasertib 0.009

Random excerpt: 2 entries already listed, in no set order.
PA2G4 (UniProt Q9UQ80)
inactive: IRAK-1-4 Inhibitor I -0.081 | ibrutinib -0.025 | [1] 0.023 | ralimetinib 0.01 | [2] -0.033 | [3] -0.029 | [4] 0.005 | pinometostat -0.01 | [5] -0.047 | [6] -0.073 | [7] 0.075 | [8] -0.043 | [9] 0.007 | [10] 0.064 | Nexturastat A -0.023 | vemurafenib 0.023 | [11] 0.038 | [12] 0.004 | givinostat -0.022 | barasertib 0.009

NUCB1 (UniProt Q02818)
inactive: IRAK-1-4 Inhibitor I 0.039 | ibrutinib -0.016 | [1] 0.031 | ralimetinib -0.012 | [2] 0.012 | [3] 0.068 | [4] -0.019 | pinometostat -0.03 | [5] 0.01 | [6] -0.071 | [7] -0.016 | [8] 0.01 | [9] 0.009 | [10] 0.005 | Nexturastat A -0.044 | vemurafenib -0.011 | [11] -0.025 | [12] -0.023 | givinostat -0.022 | barasertib -0.001

Later entries

NUCB2 (UniProt P80303)
inactive: IRAK-1-4 Inhibitor I 0.028 | ibrutinib -0.014 | [1] -0.004 | ralimetinib -0.029 | [2] 0.034 | [3] 0.067 | [4] -0.004 | pinometostat -0.048 | [5] -0.023 | [6] -0.002 | [7] 0.021 | [8] 0.004 | [9] 0.012 | [10] -0.004 | Nexturastat A -0.058 | vemurafenib -0.019 | [11] -0.038 | [12] -0.066 | givinostat -0.025 | barasertib -0.014

OSGEP (UniProt Q9NPF4)
inactive: IRAK-1-4 Inhibitor I -0.001 | ibrutinib 0.013 | [1] -0.048 | ralimetinib -0.03 | [2] 0 | [3] 0.02 | [4] -0.039 | pinometostat -0.056 | [5] 0.021 | [6] -0.011 | [7] -0.044 | [8] 0.013 | [9] 0 | [10] 0.069 | Nexturastat A -0.175 | vemurafenib -0.01 | [11] 0.003 | [12] -0.002 | givinostat 0.001 | barasertib 0.009

OGA (UniProt O60502)
inactive: IRAK-1-4 Inhibitor I 0.039 | ibrutinib -0.03 | [1] -0.023 | ralimetinib -0.06 | [2] -0.023 | [3] -0.018 | [4] 0.003 | pinometostat -0.022 | [5] 0.011 | [6] 0.033 | [7] -0.032 | [8] -0.002 | [9] 0.005 | [10] 0.044 | Nexturastat A -0.034 | vemurafenib -0.009 | [11] -0.002 | [12] -0.062 | givinostat -0.06 | barasertib 0.012

NUP54 (UniProt Q7Z3B4)
inactive: IRAK-1-4 Inhibitor I 0 | ibrutinib -0.095 | [1] -0.064 | ralimetinib -0.01 | [2] -0.094 | [3] -0.122 | [4] 0.006 | pinometostat -0.04 | [5] -0.017 | [6] 0.08 | [7] -0.032 | [8] 0.044 | [9] 0.028 | [10] 0.104 | Nexturastat A 0 | vemurafenib 0.024 | [11] 0.061 | [12] 0.024 | givinostat 0.047 | barasertib 0.072

NUP93 (UniProt Q8N1F7)
inactive: IRAK-1-4 Inhibitor I -0.129 | ibrutinib -0.102 | [1] -0.037 | ralimetinib 0 | [2] -0.082 | [3] -0.135 | [4] -0.008 | pinometostat 0.005 | [5] -0.031 | [6] 0.01 | [7] 0.032 | [8] 0.058 | [9] 0.004 | [10] 0.03 | Nexturastat A 0.039 | vemurafenib 0.066 | [11] 0.096 | [12] 0.017 | givinostat 0.064 | barasertib 0.068

NSUN5 isoform 2 (UniProt Q96P11)
inactive: IRAK-1-4 Inhibitor I 0.088 | ibrutinib 0.027 | [1] 0.018 | ralimetinib 0.055 | [2] -0.031 | [3] 0.013 | [4] 0.013 | pinometostat 0.108 | [5] 0.096 | [6] -0.078 | [7] 0.038 | [8] 0.003 | [9] -0.039 | [10] -0.045 | Nexturastat A 0.007 | vemurafenib -0.042 | [11] 0.073 | [12] 0.048 | givinostat 0.008 | barasertib -0.009

NUDT16L1 (UniProt Q9BRJ7)
inactive: IRAK-1-4 Inhibitor I 0.003 | ibrutinib 0.039 | [1] -0.004 | ralimetinib 0.037 | [2] -0.037 | [3] 0.026 | [4] -0.022 | pinometostat -0.059 | [5] 0.049 | [6] 0.156 | [7] -0.02 | [8] -0.012 | [9] 0 | [10] 0.048 | Nexturastat A -0.116 | vemurafenib 0.001 | [11] -0.008 | [12] -0.051 | givinostat -0.058 | barasertib 0

NUBPL (UniProt Q8TB37)
inactive: IRAK-1-4 Inhibitor I 0.064 | ibrutinib 0.073 | [1] -0.018 | ralimetinib -0.033 | [2] 0 | [3] -0.001 | [4] -0.134 | pinometostat -0.056 | [5] 0.073 | [6] 0.078 | [7] -0.037 | [8] -0.039 | [9] 0.004 | [10] 0.006 | Nexturastat A 0.035 | vemurafenib -0.055 | [11] -0.031 | [12] -0.039 | givinostat -0.008 | barasertib 0.024

NUP62 (UniProt P37198)
inactive: IRAK-1-4 Inhibitor I -0.022 | ibrutinib -0.03 | [1] -0.029 | ralimetinib 0.026 | [2] 0.03 | [3] -0.04 | [4] 0.009 | pinometostat 0.012 | [5] -0.052 | [6] 0.033 | [7] -0.011 | [8] 0.001 | [9] 0.022 | [10] 0.038 | Nexturastat A 0.047 | vemurafenib -0.002 | [11] 0.048 | [12] 0.003 | givinostat 0.044 | barasertib 0.07

NUDCD1 (UniProt Q96RS6)
inactive: IRAK-1-4 Inhibitor I 0.017 | ibrutinib -0.032 | [1] 0.004 | ralimetinib -0.024 | [2] -0.031 | [3] -0.045 | [4] -0.055 | pinometostat 0.006 | [5] 0.004 | [6] -0.003 | [7] 0.003 | [8] -0.008 | [9] 0.012 | [10] 0.02 | Nexturastat A -0.024 | vemurafenib 0.033 | [11] 0.035 | [12] -0.036 | givinostat 0.028 | barasertib 0.009

NSUN4 (UniProt Q96CB9)
inactive: IRAK-1-4 Inhibitor I -0.07 | ibrutinib 0.039 | [1] -0.012 | ralimetinib 0.088 | [2] -0.041 | [3] -0.029 | [4] 0.023 | pinometostat 0.024 | [5] 0.15 | [6] -0.012 | [7] 0.063 | [8] -0.008 | [9] -0.086 | [10] -0.099 | Nexturastat A 0.095 | vemurafenib 0.047 | [11] 0.04 | [12] 0.001 | givinostat -0.18 | barasertib -0.038

NSUN6 (UniProt Q8TEA1)
inactive: IRAK-1-4 Inhibitor I 0.032 | ibrutinib 0.046 | [1] -0.01 | ralimetinib -0.027 | [2] -0.015 | [3] 0.023 | [4] -0.034 | pinometostat -0.014 | [5] -0.025 | [6] 0.023 | [7] -0.015 | [8] -0.015 | [9] -0.012 | [10] 0.004 | Nexturastat A -0.042 | vemurafenib 0.009 | [11] 0.026 | [12] -0.018 | givinostat -0.032 | barasertib 0.022

P4HA1 (UniProt P13674)
inactive: IRAK-1-4 Inhibitor I -0.052 | ibrutinib -0.07 | [1] 0.017 | ralimetinib 0.061 | [2] 0.043 | [3] -0.037 | [4] 0.031 | pinometostat 0.081 | [5] 0.022 | [6] 0.033 | [7] -0.002 | [8] -0.032 | [9] -0.053 | [10] -0.052 | Nexturastat A 0.076 | vemurafenib -0.017 | [11] -0.06 | [12] 0.077 | givinostat -0.013 | barasertib -0.035
